Values from PubChem BioAssay AID1259285 (Sanger Institute, 2017).

Purpose: 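Kinase knock-downs that reduce colorectal cancer cell viability or act with drugs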 (primary screen)
System: human HCC56 colorectal cancer cells
Knock-down reagent: siRNA pool against human genes
Treatment: DMSO vehicle, or anchor drug BYL719 at 1 µM, cetuximab at 5 µg/ml, or trametinib at 10 nM
Read-out: 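Viability as a ratio to non-targeting pool wells, averaged over replicates and turned into a robust z-score; synergy scores with BYL719, cetuximab or trametinib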
Reading the numbers: viability robust z-score, no drug: higher = more viable cells, weaker knock-down effect
Active means: 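Essential when the drug-free viability robust z-score falls below -3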
Meaning of the calls: active = essential without drug; inactive = no change without drug
The deposit covers 794 reagents; shown is a part drawn at random. Over the whole deposit, 20 (2.5%) got an active call. 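Calls rest on the drug-free arm alone and ignore synergy scores; viability ratios seem to be capped at 1.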 Unmarked entries are inactive. Not all columns of the deposit are shown. Not given: the amount of reagent, the time to read-out.

no.	Target gene	viability robust z-score, no drug
1	DCK	0.458
2	ITPKA	0.458
3	DAPK2	0.121
4	SOS2	0.458
5	CDK14	0.458
6	PKMYT1	0.458
7	TAOK3	0.458
8	GALK1	-4.56 (active)
9	JAK3	0.458
10	CDKL4	-0.386
11	MAPKAPK5	0.458
12	PLK2	0.458
13	CDK20	0.0271
14	ELF3	0.458
15	NME1	0.458
16	MAP3K20	0.458
17	CASP8	0.458
18	IGF2R	0.458
19	NEK10	-0.836
20	NEK9	0.458
21	GALK2	0.458
22	RIPK3	0.455
23	PAK4	0.458
24	NUP107	-0.632
25	MAP3K5	0.458
26	TBX3	0.458
27	CDC73	0.222
28	MAGI2	0.458
29	TESK2	0.458
30	POLR2B	-6.29 (active)
31	ATRX	0.458
32	LIMK2	0.458
33	DIS3	0.458
34	DYRK1B	-0.913

Quoted from above for reference:
no.	Target gene	viability robust z-score, no drug
12	PLK2	0.458
13	CDK20	0.0271
14	ELF3	0.458
15	NME1	0.458
